Data as given in PubChem BioAssay AID1259424 (University of Nebraska Medical Center, 2018).
Aim: 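Rank knockdowns across the genome by resemblance to the KSR1 depletion profile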 (primary screen). System: human HCT116 colon cancer cells. Reagents: siRNA pool against human genes, 50 nM. Detection: 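Six signature mRNAs by branched-DNA multiplex assay, scaled to two housekeeping genes and non-targeting median, log2; matched to mean KSR1 knockdown profile by Pearson correlation and euclidean distance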. Direction: mean correlation with KSR1 profile: higher = expression change more like KSR1 knockdown.
The deposit covers about 14,000 reagents; shown is a random part of them. 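Higher correlation or smaller distance means closer resemblance to KSR1 loss; control wells, including KSR1 knockdowns, recur on many plates.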 Not all columns of the deposit are shown. Not given: the time to read-out.

gene	mean correlation with KSR1 profile
P3H2	-0.459
IRF2BP1	-0.727
ATXN8OS	-0.18
COL1A1	-0.626
PRDM6	0.134
DYNLRB1	-0.063
ENTPD3	-0.24

Next part, starting with the last 2 of the part before.
gene	mean correlation with KSR1 profile
DYNLRB1	-0.063
ENTPD3	-0.24
SETD7	-0.0562
BCAS2	-0.203
STX6	0.188
MYH11	0.843
PPP1R10	0.107
PAK4	-0.0698
RAMP1	0.317
BTN2A3P	-0.363
RNF26	-0.515
HMGXB3	0.25
ERI1	-0.467
EIF2B2	0.254
SEPHS1	-0.114
